Assay results published in PubChem BioAssay AID248 (DTP/NCI, 2004).
The list does not hold the whole screen: it gathers tests that were run many times, whatever their T/C, doses with no T/C, and many T/C values between a quarter and a half above the control. Further doses and runs are listed elsewhere. T/C gives the treated animals as a percentage of the vehicle group. Some entries give survivors of the animals treated and no T/C: the source files T/C as zero there, which appears to mark a toxic dose or a test without result, not a measured value. Some doses without a T/C left all or most animals alive at the check, yet need not have been tolerated: the source hardly ever lists a survival T/C far under the control, and the zero likely stands for such cases as well. Survivors were counted at the toxicity check, usually on the fifth day, unless a day is given; later deaths do not show. Schedules are NCI's codes, read here as Q, the interval in days (D) or hours (H), X, the number of doses. Some doses were run more than once; the values are given in rising order. Signs of the kind (2×) count equal records among those shown. Some schedules carry Z or #; the key to these is not given. Some molecules as drawn cover several salts, stereoisomers or complexes of the source; a dose is that of the sample tested. Where survival is the endpoint, this PubChem deposit counts one and a half times the control or more as active, and values a quarter to a half above the control carry no call in these data; other NCI protocols may use other cut-offs. Some T/C values are followed by the survivors on the day toxicity was checked, most often the fifth; without a count, all were alive then.

Test system: L1210 leukemia ip in BDF1 mice, survival T/C
Experiment: NCI In Vivo Anticancer Drug Screen. Data for tumor model L1210 Leukemia (intraperitoneal) in B6D2F1 (BDF1) mice
Settings: higher T/C = longer survival
[1] = T/C endpoint: mean survival time, dose: 25.0 mg/kg/injection, schedule: Q01DX009 (ip), vehicle: saline with Tween-80
[2] = T/C endpoint: mean survival time, dose: 50.0 mg/kg/injection, schedule: Q01DX009 (ip), vehicle: saline with Tween-80
[3] = T/C endpoint: mean survival time, dose: 100.0 mg/kg/injection, schedule: Q01DX009 (ip), vehicle: saline with Tween-80
[4] = T/C endpoint: mean survival time, dose: 200.0 mg/kg/injection, schedule: Q01DX009 (ip), vehicle: saline with Tween-80

C/C=C/C[P+](c1ccccc1)(c1ccccc1)c1ccccc1
survivor count [1]: 0 of 3
survivor count [2]: 0 of 3 and 1 of 3
survivor count (T/C endpoint: mean survival time, dose: 60.0 mg/kg/injection, schedule: Q01DX001 (ip), vehicle: saline): 0 of 6
survivor count (T/C endpoint: mean survival time, dose: 75.0 mg/kg/injection, schedule: Q01DX001 (ip), vehicle: saline): 1 of 6
survivor count [3]: 0 of 3
survivor count (T/C endpoint: mean survival time, dose: 150.0 mg/kg/injection, schedule: Q01DX001 (ip), vehicle: saline): 0 of 6
survivor count [4]: 0 of 3
survivor count (T/C endpoint: mean survival time, dose: 300.0 mg/kg/injection, schedule: Q01DX001 (ip), vehicle: saline): 0 of 6

CN1CCN(C(=O)Cc2c[nH]c3ccccc23)CC1
survivor count (T/C endpoint: mean survival time, dose: 12.5 mg/kg/injection, schedule: Q01DX009 (ip), vehicle: saline with Tween-80): 1 of 6
survivor count [1]: 6 of 6
survivor count [2]: 6 of 6
survivor count [3]: 6 of 6
survivor count [4]: 2 of 6
survivor count (T/C endpoint: mean survival time, dose: 200.0 mg/kg/injection, schedule: Q04DX003 (ip), vehicle: saline with Tween-80): 3 of 6
survivor count (T/C endpoint: mean survival time, dose: 400.0 mg/kg/injection, schedule: Q01DX009 (ip), vehicle: saline with Tween-80): 0 of 6
survivor count (T/C endpoint: mean survival time, dose: 400.0 mg/kg/injection, schedule: Q04DX003 (ip), vehicle: saline with Tween-80): 2 of 6

c1ccc(C2O[O][Sn]([c]3ccccc3)([c]3ccccc3)[O]2)cc1 (stereo not given)
survivor count (T/C endpoint: mean survival time, dose: 200.0 mg/kg/injection, schedule: Q04DX002 (ip), vehicle: gum acacia): 3 of 3
survivor count (T/C endpoint: mean survival time, dose: 400.0 mg/kg/injection, schedule: Q04DX002 (ip), vehicle: gum acacia): 2 of 3

COc1cc([C@@H]2c3cc4c(cc3[C@H](OC(C)=O)[C@H]3COC(=O)[C@@H]23)OCO4)cc(OC)c1OC
T/C [2]: 138 % of control
survivor count (T/C endpoint: mean survival time, dose: 75.0 mg/kg/injection, schedule: Q01DX009 (ip), vehicle: saline with Tween-80): 3 of 6
survivor count (T/C endpoint: mean survival time, dose: 400.0 mg/kg/injection, schedule: Q04DX003 (ip), vehicle: Klucel (hydroxypropylcellulose) (HPC)): 4 of 6
survivor count (T/C endpoint: mean survival time, dose: 525.0 mg/kg/injection, schedule: Q07DX Z (ip), vehicle: methylcellulose (MC)): 0 of 6

O=C(OCCN1CCCC1)C(c1ccccc1)C1(O)CCCC1 (stereo not given)
survivor count (T/C endpoint: mean survival time, dose: 200.0 mg/kg/injection, schedule: Q04DX003 (ip), vehicle: saline): 1 of 6
survivor count (T/C endpoint: mean survival time, dose: 400.0 mg/kg/injection, schedule: Q04DX003 (ip), vehicle: saline): 0 of 6

CC[CH2][Sn]([CH2]CC)([CH2]CC)[O]C(=O)c1ccccc1I
survivor count (T/C endpoint: mean survival time, dose: 6.25 mg/kg/injection, schedule: Q01DX009 (ip), vehicle: Klucel (hydroxypropylcellulose) (HPC)): 0 of 3
survivor count (T/C endpoint: mean survival time, dose: 12.5 mg/kg/injection, schedule: Q01DX009 (ip), vehicle: Klucel (hydroxypropylcellulose) (HPC)): 0 of 3
survivor count (T/C endpoint: mean survival time, dose: 25.0 mg/kg/injection, schedule: Q01DX009 (ip), vehicle: Klucel (hydroxypropylcellulose) (HPC)): 0 of 3 and 0 of 6
survivor count (T/C endpoint: mean survival time, dose: 50.0 mg/kg/injection, schedule: Q01DX009 (ip), vehicle: Klucel (hydroxypropylcellulose) (HPC)): 0 of 6
survivor count (T/C endpoint: mean survival time, dose: 100.0 mg/kg/injection, schedule: Q01DX009 (ip), vehicle: Klucel (hydroxypropylcellulose) (HPC)): 0 of 6
survivor count (T/C endpoint: mean survival time, dose: 200.0 mg/kg/injection, schedule: Q01DX009 (ip), vehicle: Klucel (hydroxypropylcellulose) (HPC)): 0 of 6
survivor count (T/C endpoint: mean survival time, dose: 400.0 mg/kg/injection, schedule: Q01DX009 (ip), vehicle: Klucel (hydroxypropylcellulose) (HPC)): 0 of 6

O=P1(NCCCl)OCCCN1CCCl (stereo not given)
T/C (T/C endpoint: mean survival time, dose: 25.0 mg/kg/injection, schedule: Q01DX009 (ip), vehicle: water): 139 % of control
T/C (T/C endpoint: mean survival time, dose: 50.0 mg/kg/injection, schedule: Q01DX001 (ip), vehicle: saline, evaluated on day 30): 126 % of control
T/C (T/C endpoint: mean survival time, dose: 50.0 mg/kg/injection, schedule: Q01DX001 (ip), vehicle: saline, run until all animals had died): 130 % of control
T/C (T/C endpoint: mean survival time, dose: 50.0 mg/kg/injection, schedule: Q07DX003 (ip), vehicle: saline): 126 % of control
T/C (T/C endpoint: mean survival time, dose: 100.0 mg/kg/injection, schedule: Q01DX001 (ip), vehicle: saline, evaluated on day 30): 138 and 143 % of control
T/C (T/C endpoint: mean survival time, dose: 100.0 mg/kg/injection, schedule: Q01DX001 (ip), vehicle: saline, run until all animals had died): 143 % of control [7 of 8 alive]
T/C (T/C endpoint: mean survival time, dose: 200.0 mg/kg/injection, schedule: Q01DX009 (ip), vehicle: water): 134 % of control
survivor count (T/C endpoint: mean survival time, dose: 400.0 mg/kg/injection, schedule: Q01DX009 (ip), vehicle: saline): 3 of 10
survivor count (T/C endpoint: mean survival time, dose: 400.0 mg/kg/injection, schedule: Q01DX009 (ip), vehicle: water): 8 of 10
T/C (T/C endpoint: median survival time, dose: 108.0 mg/kg/injection, schedule: Q01DX014 (ip), vehicle: water, evaluated on day 5): 148 % of control
T/C (T/C endpoint: median survival time, dose: 108.0 mg/kg/injection, schedule: Q01DX014 (ip), vehicle: water, evaluated on day 45): 147 % of control
T/C (T/C endpoint: median survival time, dose: 180.0 mg/kg/injection, schedule: Q01DX001 (ip), vehicle: water, evaluated on day 5): 167 and 214 % of control
T/C (T/C endpoint: median survival time, dose: 180.0 mg/kg/injection, schedule: Q01DX001 (ip), vehicle: water, evaluated on day 7): 170 % of control
T/C (T/C endpoint: median survival time, dose: 180.0 mg/kg/injection, schedule: Q01DX001 (ip), vehicle: water, evaluated on day 45): 168 % of control
T/C (T/C endpoint: median survival time, dose: 180.0 mg/kg/injection, schedule: Q01DX001 (ip), vehicle: water, evaluated on day 50): 156 % of control
T/C (T/C endpoint: median survival time, dose: 180.0 mg/kg/injection, schedule: Q01DX001 (ip), vehicle: water, evaluated on day 60): 155 % of control
T/C (T/C endpoint: median survival time, dose: 180.0 mg/kg/injection, schedule: Q01DX001 (ip), vehicle: water, evaluated on day 90): 177 % of control
T/C (T/C endpoint: median survival time, dose: 300.0 mg/kg/injection, schedule: Q01DX001 (ip), vehicle: water, evaluated on day 5): 178, 208, 283 % of control
T/C (T/C endpoint: median survival time, dose: 300.0 mg/kg/injection, schedule: Q01DX001 (ip), vehicle: water, evaluated on day 7): 174 % of control
T/C (T/C endpoint: median survival time, dose: 300.0 mg/kg/injection, schedule: Q01DX001 (ip), vehicle: water, evaluated on day 45): 189 % of control
T/C (T/C endpoint: median survival time, dose: 300.0 mg/kg/injection, schedule: Q01DX001 (ip), vehicle: water, evaluated on day 50): 175 % of control [7 of 8 alive]
T/C (T/C endpoint: median survival time, dose: 300.0 mg/kg/injection, schedule: Q01DX001 (ip), vehicle: water, evaluated on day 60): 183 and 194 % of control
T/C (T/C endpoint: median survival time, dose: 300.0 mg/kg/injection, schedule: Q01DX001 (ip), vehicle: water, evaluated on day 90): 227 % of control
survivor count (T/C endpoint: median survival time, dose: 300.0 mg/kg/injection, schedule: Q01DX014 (ip), vehicle: water): 5 of 8
survivor count (T/C endpoint: median survival time, dose: 500.0 mg/kg/injection, schedule: Q01DX001 (ip), vehicle: saline): 3 of 8
T/C (T/C endpoint: median survival time, dose: 500.0 mg/kg/injection, schedule: Q01DX001 (ip), vehicle: water, evaluated on day 5): 40, 148, 191 % of control
T/C (T/C endpoint: median survival time, dose: 500.0 mg/kg/injection, schedule: Q01DX001 (ip), vehicle: water, evaluated on day 7): 265 % of control
T/C (T/C endpoint: median survival time, dose: 500.0 mg/kg/injection, schedule: Q01DX001 (ip), vehicle: water, evaluated on day 50): 268 % of control
T/C (T/C endpoint: median survival time, dose: 500.0 mg/kg/injection, schedule: Q01DX001 (ip), vehicle: water, evaluated on day 60): 183 % of control [7 of 8 alive]
survivor count (T/C endpoint: median survival time, dose: 500.0 mg/kg/injection, schedule: Q01DX001 (ip), vehicle: water): 0 of 8, 4 of 8, 6 of 8
survivor count (T/C endpoint: median survival time, dose: 500.0 mg/kg/injection, schedule: Q07DX003 (ip), vehicle: water): 6 of 8
survivor count (T/C endpoint: median survival time, dose: 700.0 mg/kg/injection, schedule: Q01DX001 (ip), vehicle: water): 2 of 8
survivor count (T/C endpoint: median survival time, dose: 800.0 mg/kg/injection, schedule: Q01DX001 (ip), vehicle: water): 0 of 8
survivor count (T/C endpoint: median survival time, dose: 833.0 mg/kg/injection, schedule: Q01DX001 (ip), vehicle: saline): 0 of 8
T/C (T/C endpoint: median survival time, dose: 833.0 mg/kg/injection, schedule: Q01DX001 (ip), vehicle: water, evaluated on day 5): 28 and 29 % of control
T/C (T/C endpoint: median survival time, dose: 833.0 mg/kg/injection, schedule: Q01DX001 (ip), vehicle: water, evaluated on day 7): 97 % of control
survivor count (T/C endpoint: median survival time, dose: 833.0 mg/kg/injection, schedule: Q01DX001 (ip), vehicle: water): 0 of 8 (2×), 1 of 8, 4 of 8
survivor count (T/C endpoint: median survival time, dose: 833.0 mg/kg/injection, schedule: Q07DX003 (ip), vehicle: water): 1 of 8
survivor count (T/C endpoint: median survival time, dose: 900.0 mg/kg/injection, schedule: Q01DX001 (ip), vehicle: water): 0 of 8
